Assay results from PubChem BioAssay AID1347423 (Functional Genomics Laboratory (NCATS/FGL), 2020).
Screen size: about 52,000 sequences; about 210 (0.4%) were called active.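 Rule for the calls: active = gene whose silencing raises cell survival under the drug, median off-target-corrected z-score across its silencing RNAs 2 or more; inactive = the rest.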 The list shows a part of the results.

Assay: Resistance to Poly (ADP-Ribose) Polymerase inhibitor: Gene Identification via Genome-wide siRNA Screen
Settings: mouse BRCA2 R2336H ES cells, olaparib, CellTiter-Glo viability; hits give high values
Method in brief: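 Genome-wide siRNA screen (3 siRNAs/gene, 20 nM) in mouse ES cells carrying hypomorphic BRCA2 R2336H; olaparib 500 nM added 48 h post-transfection, CellTiter-Glo viability 72 h later. Normalized to plate-median negative control; MAD z-scores, gene median, seed-adjusted.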
With GGUUUUCACGUGCUGCUGATT against Chd1l the z-score was inactive: -2.51. For GGUAUUCAGUAAUACAGUUTT against Igf2bp3, the z-score was inactive: -1.01. In the case of GCUGGUCAUUACUAAUACATT against Rsbn, the z-score is reported as inactive: -1.02. With GGCUCUGGUCCAAGAAAUGTT against C4 the z-score was inactive: -1.41. In the case of GGAGUUGAGGGUCUCAUUCTT against Nphp1, the z-score is reported as inactive: 2.19. For GGAAUGAACAUCAUUGUUUTT against Sms, the z-score was inactive: 1.16. For GGCAGGACGAACAUGGCUATT against Hspb1, the z-score was inactive: -0.172. With GCACAAACUACUGAACUUGTT against Tcfap2e the z-score was inactive: 1.69. For GGAGUACAUGGUGAUGUUGTT against Tessp3, the z-score was inactive: -0.703. In the case of “GGGCUCACUCUGUCUCUACTT against 2810432D09Rik”, the z-score is reported as inactive: 1.34. With GGAAGAAAAACUUGUCUCCTT against Copa the z-score was inactive: -2.72. For CGGAGCUGUUGGUAAAACCTT against Rac1, the z-score was inactive: -0.207. In the case of CCACGUUGUCAUAAUAAACTT against Mrpl13, the z-score is reported as inactive: 1.23. With GGCAAUGCUAGGUGAGGAATT against Olfr157 the z-score was inactive: -1.5. In the case of GGUCUCUGUUGCUUUGACUTT against Tgoln1, the z-score is reported as inactive: 0.0732. For CCGUGUCUUCCAUAUUGGUTT against Trip6, the z-score was inactive: -0.166. For GGCUCCUUUCGAAAGUAAATT against BC051142, the z-score was inactive: 0.471. With CCUUUGAGCCAGUUAUUUATT against Slc25a27 the z-score was inactive: 1.7. With “GCCACAAACCAAUGGUUUGTT against B230219D22Rik” the z-score was inactive: 1.27. For CCUUUAGGUACCACGAGUGTT against Gyltl1b, the z-score was inactive: -0.781. With GCUCCGAAGAGCUAAUACUTT against Tmem25 the z-score was inactive: 0.0528. For GGUAUACAUGCUUCUCUCUTT against Olfr610, the z-score was inactive: -0.59. For GCAAUAUACACCAUAUUGGTT against Panx3, the z-score was inactive: 0.604. For CGAAACUAGGAUUGAGGAGTT against Ece1, the z-score was inactive: 2.34. In the case of GGAAAAAAAGGUGAAAACCTT against Ttc16, the z-score is reported as inactive: -0.609. In the case of “CGAUUCUGCUACCUAUAGATT against 2810408A11Rik”, the z-score is reported as inactive: 1.09. With GGUGUUUUUUAUCAGUAUGTT against Tsrc1 the z-score was inactive: -0.236. With “GGUGUUUUUGAUGAGAGUGTT against 1110055N21Rik” the z-score was inactive: 0.656. With CCUUCAUUGUGAUUGACAUTT against Ptpn11 the z-score was inactive: 0.909. In the case of GGACAGAUCUUUUUGGUUUTT against Olfr295, the z-score is reported as inactive: -0.163. With “GGAAUAUGGAAGGAAGAGUTT against E130311K13” the z-score was inactive: -1.6. For CCACAUAUUUAUCUCCCUGTT against Mrpl33, the z-score was inactive: -0.129. In the case of GGCAAAGAUCAAGACUGUGTT against Rbbp1, the z-score is reported as inactive: -1.09. For CCGGCACUAUGAGAAGAAGTT against Lims2, the z-score was inactive: -1.88. In the case of “GCACGCUAAGUAACGAAAGTT against 1300013B24Rik”, the z-score is reported as inactive: -1.46. In the case of GGAUAUCUGAGACAGGUUUTT against Arf4, the z-score is reported as inactive: -1.39. For GGGCAUUGAUCACAGUGUATT against Bcl3, the z-score was inactive: 1.33. In the case of GGAAACAAGGUCUCUGUUUTT against Eva1, the z-score is reported as inactive: 0.406. With CGACCAUUCCUUUGAGUUATT against Spg3a the z-score was inactive: -0.134. In the case of GGAGAACUUCUGGAGCACCTT against Clecsf10, the z-score is reported as inactive: -0.282. With GAGAACAAGCCUAAGCCCATT against V1rb5 the z-score was inactive: -0.864. For “CAACAUCUAAACCCAAGAGTT against 1700010D01Rik”, the z-score was inactive: -2.45. With GGUGCUUAUACUUCUUUGUTT against Sgcz the z-score was inactive: -0.857. In the case of CCGACUCCAGUUGAAUGUUTT against Tgif2, the z-score is reported as inactive: -1.25. In the case of CGUGCAACAAGACAUCUAATT against Wnt4, the z-score is reported as inactive: 0.436. In the case of “GGUGAUGCUAAAUUCUGAUTT against 2610205H19Rik”, the z-score is reported as inactive: 0.915. For GGAGAUCCUAGAAACCAUCTT against Pex6, the z-score was inactive: -0.636. With “GGUCUGACCAUGAUCAUAATT against D230037D09Rik” the z-score was inactive: -1.7. In the case of GGCACGUAUGUGGUAGACATT against Zdhhc7, the z-score is reported as inactive: 0.514. For GGCUGCAUGAUUUAUAGAGTT against Il18, the z-score was inactive: -0.198. With “GGCGUGUGUAAUAAUUUCCTT against D14Ertd500e” the z-score was inactive: -1.21. With GGACUAGCAUUCAUGUUCCTT against Zfy2 the z-score was inactive: 0.374. In the case of “GCUAAGCUGGAUCCAUAAUTT against A430060F13Rik”, the z-score is reported as inactive: 0.339. With GGACCAAGUGGAAGAAGCATT against Nkx1-2 the z-score was inactive: -0.904. For GGUACUAGAUGACAAAAACTT against Gtl3, the z-score was inactive: -0.801. In the case of GCCUGCAUUAGGAACCAAATT against Galnt9, the z-score is reported as inactive: -1.2. For “GCCAACUAGAAAACAACUGTT against 2700099C19Rik”, the z-score was inactive: -0.308. For “CGGAUCGGUGCGAGAAUAATT against D930035B09Rik”, the z-score was inactive: -0.837. With GCCUUCAAAUGAAGGAAGGTT against Olfr699 the z-score was inactive: -0.519. For GGCGUAACCUAACAUGGGATT against Clec2, the z-score was inactive: -1.03. For CGAUCUGAGUUUUAUCUCUTT against Gm123, the z-score was inactive: 0.476. With GCUCAGUAUACUUCAGCAUTT against Og9x the z-score was inactive: 1.01. In the case of GCAUGUGUCAAGAUGUCUGTT against Tec, the z-score is reported as inactive: -0.706. In the case of CGAACUGUCAUACAGAUUCTT against Gadd45b, the z-score is reported as inactive: -0.0832. For GGAAUCGUUCCGUAGUGACTT against Olfr959, the z-score was inactive: -0.0376. In the case of GGGUUCCUAUGGCAAUGGGTT against Adprhl2, the z-score is reported as inactive: 0.0145. With GGAUUUGUUGACAAGAACATT against Myo1b the z-score was inactive: -0.0382.
